This is an account of results in patent US20260042810 (published 2026).

A short description of the series: general procedure: Fmoc solid-phase peptide synthesis; Wang resin; HATU/HBTU, HOBt, DIPEA; DIC/HOBt. The note with it: whole synthesis.

Turning to glucagon, where the note is “HPLC”, the “crude HPLC purity” value is recorded as 50-60%. Moreover, where the note is “molar yield”, the crude yield is listed as 90-95%.
